{"sequences": {"note": "The chains behind the UniProt entries cited, without tags or fusion partners. Where a name states a change or a piece, a line headed by the entry shows the natural chain unless it says otherwise.", "UniProt O43525": "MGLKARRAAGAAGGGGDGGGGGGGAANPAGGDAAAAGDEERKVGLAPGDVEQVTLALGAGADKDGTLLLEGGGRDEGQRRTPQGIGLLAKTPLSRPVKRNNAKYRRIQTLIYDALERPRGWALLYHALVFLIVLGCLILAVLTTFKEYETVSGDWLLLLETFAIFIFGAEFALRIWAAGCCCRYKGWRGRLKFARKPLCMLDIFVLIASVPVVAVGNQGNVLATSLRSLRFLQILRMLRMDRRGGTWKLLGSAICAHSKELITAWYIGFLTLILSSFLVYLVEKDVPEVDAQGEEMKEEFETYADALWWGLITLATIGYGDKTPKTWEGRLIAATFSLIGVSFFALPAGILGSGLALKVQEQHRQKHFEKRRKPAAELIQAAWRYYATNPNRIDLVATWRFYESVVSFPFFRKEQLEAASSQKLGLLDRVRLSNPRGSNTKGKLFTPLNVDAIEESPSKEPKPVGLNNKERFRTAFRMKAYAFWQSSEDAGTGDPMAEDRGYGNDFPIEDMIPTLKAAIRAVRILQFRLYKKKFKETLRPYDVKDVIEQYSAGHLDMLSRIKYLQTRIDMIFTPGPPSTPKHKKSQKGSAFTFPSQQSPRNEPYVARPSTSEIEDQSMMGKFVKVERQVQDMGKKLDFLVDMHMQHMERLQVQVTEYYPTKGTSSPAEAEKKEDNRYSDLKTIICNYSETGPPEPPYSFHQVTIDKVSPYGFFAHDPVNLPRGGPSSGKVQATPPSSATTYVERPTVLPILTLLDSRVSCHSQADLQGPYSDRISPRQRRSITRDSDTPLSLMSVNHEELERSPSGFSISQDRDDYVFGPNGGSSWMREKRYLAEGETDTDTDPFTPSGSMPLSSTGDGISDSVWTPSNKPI", "UniProt O43526, whole entry": "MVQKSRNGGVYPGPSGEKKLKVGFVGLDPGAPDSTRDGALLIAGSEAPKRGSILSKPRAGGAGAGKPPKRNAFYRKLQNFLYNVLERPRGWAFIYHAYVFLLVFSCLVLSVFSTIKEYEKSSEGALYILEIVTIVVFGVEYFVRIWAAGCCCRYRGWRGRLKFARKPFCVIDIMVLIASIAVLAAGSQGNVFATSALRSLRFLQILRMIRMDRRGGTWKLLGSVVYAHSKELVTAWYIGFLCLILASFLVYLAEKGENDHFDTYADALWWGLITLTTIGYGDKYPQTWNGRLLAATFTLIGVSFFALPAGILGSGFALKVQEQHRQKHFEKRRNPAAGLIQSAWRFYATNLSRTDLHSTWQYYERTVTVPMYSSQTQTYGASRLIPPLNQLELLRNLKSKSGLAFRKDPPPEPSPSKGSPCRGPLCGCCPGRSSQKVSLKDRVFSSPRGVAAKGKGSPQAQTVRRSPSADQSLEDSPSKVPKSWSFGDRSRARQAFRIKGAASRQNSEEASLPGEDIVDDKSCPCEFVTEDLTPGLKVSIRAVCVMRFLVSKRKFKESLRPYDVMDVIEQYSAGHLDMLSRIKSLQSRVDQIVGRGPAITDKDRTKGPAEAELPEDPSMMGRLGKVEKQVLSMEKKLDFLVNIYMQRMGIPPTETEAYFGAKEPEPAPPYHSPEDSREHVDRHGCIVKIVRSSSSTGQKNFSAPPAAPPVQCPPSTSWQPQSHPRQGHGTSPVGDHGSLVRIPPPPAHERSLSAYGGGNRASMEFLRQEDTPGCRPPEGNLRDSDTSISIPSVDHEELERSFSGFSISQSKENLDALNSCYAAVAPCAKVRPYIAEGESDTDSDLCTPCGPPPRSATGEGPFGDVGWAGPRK"}, "source": "patent US9168259B2", "about": "(GRÜNENTHAL GMBH, priority 2010, dated 2015)", "molecular_target": "T1, KCNQ2/3 channels (Homo sapiens, UniProt O43525+O43526)", "T1 construct": "expressed in transfected cells", "assay": "Fluorescence assay using a voltage sensitive dye (fluorimetry)", "type": "cell-based", "conditions": "CHO-K1 cells expressing KCNQ2/3; IC50 where % efficacy is negative", "from_the_text": "Method I. Fluorescence Assay Using a Voltage Sensitive Dye (Fluorimetry)\nThese voltage-sensitive dyes are fluorescent dyes and, therefore, are forming the link between cell potential influenced by KCNQ modulation and fluorescence intensity. A KCNQ agonist leads to an opening of the channel, potassium and dye efflux, a following hyperpolarization and a reduction of the inner fluorescence intensity in a kinetic protocol. If applying an ion jump by KCl depolarization, KCNQ agonists increase the ΔF/F value. An antagonist performs vice versa, respectively.\nTherefore, ‘fluorimetry EC50’ is a measure for the compound potency. […]\nThe cell number is determined using a CASY™ cell counter (TCC, Schärfe System). […]\nFluorescence measurements are carried out in a BMG Labtech FLUOstar™, BMG Labtech NOVOstar™ or BMG Labtech POLARstar™ instrument (525 nm excitation, 560 nm emission, Bottom Read mode). […] The fluorescence intensity of the dye is then measured for 5 min and the fluorescence value F1 of each well is thus determined at a given, constant time. […] The change in fluorescence intensity is subsequently monitored until all the relevant values have been obtained (mainly 5-30 min). At a given time post KCl application, a fluorescence value F2 is determined, in this case at the time of the fluorescence peak. […]", "note": "At least one read-out could not be matched to a standard name with certainty.", "data": [{"smiles": "CCSc1nc(N(C)c2cccnc2)cc(C)c1C(=O)NCc1cccc(F)c1", "note": "[Example 122, 2-Ethylsulfanyl-N-[(3-fluorophenyl)-methyl]-4-methyl-6-(pyridin-3-yl-methylamino)-pyridine-3-carboxylic acid amide]", "values": [{"measurement": "EC50", "value": 8.89, "unit": "µM"}]}]}
